In article PMC12786370 one finds binding data, which are given here for 1 substance.

Sequences of proteins named here, by UniProt entry; tags and fusion partners are left off.
UniProt P67809: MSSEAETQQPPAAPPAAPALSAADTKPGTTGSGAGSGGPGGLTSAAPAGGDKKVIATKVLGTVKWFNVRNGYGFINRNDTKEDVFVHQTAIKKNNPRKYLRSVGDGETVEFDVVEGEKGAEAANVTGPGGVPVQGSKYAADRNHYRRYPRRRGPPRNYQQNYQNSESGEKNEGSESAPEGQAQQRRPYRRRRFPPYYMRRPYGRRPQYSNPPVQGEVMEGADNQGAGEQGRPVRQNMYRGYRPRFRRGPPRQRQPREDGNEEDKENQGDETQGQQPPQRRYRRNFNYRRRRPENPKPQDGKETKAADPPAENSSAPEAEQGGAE

Assay [1] addresses T1, CXCL2 lacking the signal peptide (ΔCXCL2), Flag-tagged, overexpressed in HCC cells (UniProt P19875).
T1 sequence: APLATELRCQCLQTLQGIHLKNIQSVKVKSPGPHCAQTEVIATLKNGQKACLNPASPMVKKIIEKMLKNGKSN
The assay is described as follows: co-IP; CXCL2/ΔCXCL2 overexpression HCC cells, precipitated with anti-Flag antibody.

Assay [2] deals with T2, C-X-C motif chemokine ligand 2 (CXCL2), Flag-tagged, full length, overexpressed in HCC cells (UniProt P19875).
T2 sequence: T1 sequence
The assay is described as above.

These are yes or no findings as the source states them, for the method shown. Binding seen in cells or lysates may run through a third protein. Some entries that bind do so weakly or less than the wild type. Sequences can lack the tags named with a protein.

“Y-Box Binding Protein 1 (YBX1) in HCC cells (from UniProt P67809 1-324)”: the binding entry in assay [1] and in assay [2] was “binds” throughout.
